Taken from: PubChem BioAssay AID743454 (Peter MacCallum Cancer Centre, 2014)

Screen: 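Search for knock-downs that restore vorinostat killing in resistant colon cancer cells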 (primary screen)
Cell system: human HCT116-VR colon cancer cells, selected for vorinostat resistance
Knock-down reagent: siRNA pool against human genes, 40 nM siRNA pool
Timing: vorinostat for 24 h, read-out about 72 h after transfection
Challenge: vorinostat at 2.5 µM final
Measurement: 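Two measures, CellTiter-Fluor viability and luminescent caspase 3/7 activity, each as fold change against same-plate mock wells, mean of duplicates, then screen-wide robust z-score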
Reading the numbers: viability robust z-score: higher = more viable cells than screen typical; caspase robust z-score: higher = more caspase 3/7 activity than screen typical
Hit rule: 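a knock-down is a hit when classed RV1 or RV2 for lowered viability, or CA1 or CA2 for caspase activation; those lethal without drug were dropped; hits were retested singly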
This is one part, drawn at random, of about 18,000 reagents. 450 of them (2.5%) count as active. 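Single biological run; no consistent viability z cut-off exists, so the class columns, not z-scores, define the calls.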 Entries without a mark were called inactive. No sequences are given here.

no.	gene symbol	PubChem SID	viability hit class	caspase hit class	viability robust z-score	caspase robust z-score
1	GPT2 (GeneID 84706)	SID152153979	no change	no change	0.34	3.33
2	FEZ1 (GeneID 9638)	SID134317252	no change	no change	0.32	-0.04
3	ALKBH7 (GeneID 84266)	SID134318934	no change	no change	-1.21	0.96
4	ABHD15 (GeneID 116236)	SID134325659	no change	no change	-1.46	-0.26
5	ATP8A1 (GeneID 10396)	SID135621516	no change	no change	-0.99	-0.46
6	ZNF428 (GeneID 126299)	SID134322505	no change	no change	-1.19	0.86
7	MYF5 (GeneID 4617)	SID152151651	no change	no change	-0.12	3.13
8	GSE1 (GeneID 23199)	SID134325461	no change	no change	-0.69	-0.48
9	RSPH4A (GeneID 345895)	SID135625263	no change	no change	-0.24	0.76
10	CRKL (GeneID 1399)	SID152150429	no change	no change	0.79	-0.66
11	VSTM2L (GeneID 128434)	SID152155931	no change	no change	-1.65	-1.31

Sorted by “caspase robust z-score” (descending): 4 of the entries above
gene symbol	PubChem SID	viability hit class	caspase hit class	viability robust z-score	caspase robust z-score
RSPH4A (GeneID 345895)	SID135625263	no change	no change	-0.24	0.76
GSE1 (GeneID 23199)	SID134325461	no change	no change	-0.69	-0.48
CRKL (GeneID 1399)	SID152150429	no change	no change	0.79	-0.66
VSTM2L (GeneID 128434)	SID152155931	no change	no change	-1.65	-1.31

The listing continues:
no.	gene symbol	PubChem SID	viability hit class	caspase hit class	viability robust z-score	caspase robust z-score
12	TPTE2 (GeneID 93492)	SID135621506	no change	no change	0.49	1.92
13	IL5 (GeneID 3567)	SID152148741	no change	no change	0.08	-0.64
14	SUMO3 (GeneID 6612)	SID135623821	no change	no change	0.59	-0.42
15	ME2 (GeneID 4200)	SID152151320	no change	no change	0.54	-0.38
16	TMEM183BP (GeneID 653659)	SID135625550	no change	no change	0.15	-0.24
17	EPYC (GeneID 1833)	SID135622239	no change	no change	0.54	-0.49
18	SHANK3 (GeneID 85358)	SID152151763	no change	no change	-0.32	1.26
19	MRPS18A (GeneID 55168)	SID134312131	no change	no change	0.04	0.6
20	THPO (GeneID 7066)	SID152150349	no change	no change	-0.28	-0.14
21	GEMIN5 (GeneID 25929)	SID135622643	no change	no change	1.22	-0.92
22	PWWP3A (GeneID 84939)	SID134322896	no change	no change	1.17	0.69
23	MRPL21 (GeneID 219927)	SID135623670	no change	no change	1.14	-0.94
